Results are given in words; binding and its absence hold for the method and conditions named. In cells and extracts the contact can be indirect. Some binding calls cover weakened binding; strength is not graded here.
Tests used:
[1] = molecular target: Vir-like m6A methyltransferase-associated (KIAA1429) protein, endogenous (human (endogenous in SW480, WiDr, HEK293T)) (UniProt Q69YN4); test: co-IP; endogenous proteins; reciprocal co-immunoprecipitation from 2 mg cell lysate (IP lysis buffer), antibody overnight at 4 °C, protein A/G beads, western blot
[2] = molecular target: importin α5, endogenous (human (endogenous in SW480, HEK293T)) (UniProt P52294); test: co-IP; 293T and SW480 cells overexpressing KIAA1429-WT or KIAA1429-SA plasmid; IP and western blot for importin α5
[3] = molecular target: BRAF, endogenous in SW480 cells (human (endogenous in SW480)) (UniProt P15056); test: co-IP; endogenous proteins; reciprocal co-immunoprecipitation from 2 mg cell lysate (IP lysis buffer), antibody overnight at 4 °C, protein A/G beads, western blot
[4] = molecular target: importin α5, endogenous (human (endogenous in SW480, HEK293T)) (UniProt P52294); test: as above

Chains of the proteins cited; added tags and fusions are not shown. Lines headed by an entry give the natural chain unless they say otherwise; changes in a name come on top. A line that says so, or that is headed by a name, gives the form on record, which may keep a tag or linker.
UniProt Q69YN4: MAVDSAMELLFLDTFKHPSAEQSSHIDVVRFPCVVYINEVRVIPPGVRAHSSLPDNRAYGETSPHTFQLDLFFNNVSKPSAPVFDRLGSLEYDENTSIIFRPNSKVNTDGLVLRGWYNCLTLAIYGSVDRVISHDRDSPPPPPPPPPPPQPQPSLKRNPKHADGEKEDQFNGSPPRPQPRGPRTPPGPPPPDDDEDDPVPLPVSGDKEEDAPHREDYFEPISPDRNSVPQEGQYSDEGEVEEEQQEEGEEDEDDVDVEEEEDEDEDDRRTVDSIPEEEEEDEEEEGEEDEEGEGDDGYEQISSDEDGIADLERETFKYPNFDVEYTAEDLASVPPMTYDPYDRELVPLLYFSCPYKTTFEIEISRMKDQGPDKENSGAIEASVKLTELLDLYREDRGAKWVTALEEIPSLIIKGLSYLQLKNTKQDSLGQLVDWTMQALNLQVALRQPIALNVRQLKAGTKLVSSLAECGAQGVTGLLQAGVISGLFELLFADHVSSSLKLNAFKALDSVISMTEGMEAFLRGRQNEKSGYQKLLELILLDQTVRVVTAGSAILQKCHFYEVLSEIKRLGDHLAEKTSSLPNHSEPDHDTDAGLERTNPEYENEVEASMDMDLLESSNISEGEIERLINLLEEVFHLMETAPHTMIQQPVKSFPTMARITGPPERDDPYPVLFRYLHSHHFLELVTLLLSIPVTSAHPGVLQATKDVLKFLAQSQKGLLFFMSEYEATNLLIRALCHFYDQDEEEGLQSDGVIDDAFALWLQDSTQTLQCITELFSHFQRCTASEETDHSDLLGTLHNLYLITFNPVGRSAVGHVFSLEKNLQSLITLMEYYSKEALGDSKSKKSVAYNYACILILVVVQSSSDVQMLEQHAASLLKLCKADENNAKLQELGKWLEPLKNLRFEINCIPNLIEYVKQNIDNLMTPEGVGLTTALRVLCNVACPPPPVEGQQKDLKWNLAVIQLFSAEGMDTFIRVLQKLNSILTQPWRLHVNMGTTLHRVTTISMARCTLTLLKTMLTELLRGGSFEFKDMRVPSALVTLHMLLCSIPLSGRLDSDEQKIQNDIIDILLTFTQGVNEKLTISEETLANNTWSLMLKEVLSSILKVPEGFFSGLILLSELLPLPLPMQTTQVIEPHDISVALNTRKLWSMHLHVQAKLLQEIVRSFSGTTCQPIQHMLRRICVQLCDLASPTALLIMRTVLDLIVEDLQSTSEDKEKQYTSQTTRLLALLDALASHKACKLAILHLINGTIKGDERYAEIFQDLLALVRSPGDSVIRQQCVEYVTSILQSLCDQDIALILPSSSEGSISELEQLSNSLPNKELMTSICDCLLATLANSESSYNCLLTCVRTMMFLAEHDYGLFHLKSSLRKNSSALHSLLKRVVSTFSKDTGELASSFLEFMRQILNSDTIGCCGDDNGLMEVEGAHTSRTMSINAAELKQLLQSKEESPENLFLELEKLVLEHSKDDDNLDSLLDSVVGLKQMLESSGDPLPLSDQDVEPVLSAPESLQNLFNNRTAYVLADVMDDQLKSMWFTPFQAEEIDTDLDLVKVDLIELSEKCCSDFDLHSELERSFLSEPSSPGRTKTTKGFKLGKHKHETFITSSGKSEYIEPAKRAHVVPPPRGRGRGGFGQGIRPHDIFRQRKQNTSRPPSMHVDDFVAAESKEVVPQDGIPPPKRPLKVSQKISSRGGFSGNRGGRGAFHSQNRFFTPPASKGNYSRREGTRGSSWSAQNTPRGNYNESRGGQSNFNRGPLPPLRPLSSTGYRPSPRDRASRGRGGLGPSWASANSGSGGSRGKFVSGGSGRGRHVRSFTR
KIAA1429 with serine 1579 replaced by alanine (KIAA1429-SA) (Q69YN4, form named): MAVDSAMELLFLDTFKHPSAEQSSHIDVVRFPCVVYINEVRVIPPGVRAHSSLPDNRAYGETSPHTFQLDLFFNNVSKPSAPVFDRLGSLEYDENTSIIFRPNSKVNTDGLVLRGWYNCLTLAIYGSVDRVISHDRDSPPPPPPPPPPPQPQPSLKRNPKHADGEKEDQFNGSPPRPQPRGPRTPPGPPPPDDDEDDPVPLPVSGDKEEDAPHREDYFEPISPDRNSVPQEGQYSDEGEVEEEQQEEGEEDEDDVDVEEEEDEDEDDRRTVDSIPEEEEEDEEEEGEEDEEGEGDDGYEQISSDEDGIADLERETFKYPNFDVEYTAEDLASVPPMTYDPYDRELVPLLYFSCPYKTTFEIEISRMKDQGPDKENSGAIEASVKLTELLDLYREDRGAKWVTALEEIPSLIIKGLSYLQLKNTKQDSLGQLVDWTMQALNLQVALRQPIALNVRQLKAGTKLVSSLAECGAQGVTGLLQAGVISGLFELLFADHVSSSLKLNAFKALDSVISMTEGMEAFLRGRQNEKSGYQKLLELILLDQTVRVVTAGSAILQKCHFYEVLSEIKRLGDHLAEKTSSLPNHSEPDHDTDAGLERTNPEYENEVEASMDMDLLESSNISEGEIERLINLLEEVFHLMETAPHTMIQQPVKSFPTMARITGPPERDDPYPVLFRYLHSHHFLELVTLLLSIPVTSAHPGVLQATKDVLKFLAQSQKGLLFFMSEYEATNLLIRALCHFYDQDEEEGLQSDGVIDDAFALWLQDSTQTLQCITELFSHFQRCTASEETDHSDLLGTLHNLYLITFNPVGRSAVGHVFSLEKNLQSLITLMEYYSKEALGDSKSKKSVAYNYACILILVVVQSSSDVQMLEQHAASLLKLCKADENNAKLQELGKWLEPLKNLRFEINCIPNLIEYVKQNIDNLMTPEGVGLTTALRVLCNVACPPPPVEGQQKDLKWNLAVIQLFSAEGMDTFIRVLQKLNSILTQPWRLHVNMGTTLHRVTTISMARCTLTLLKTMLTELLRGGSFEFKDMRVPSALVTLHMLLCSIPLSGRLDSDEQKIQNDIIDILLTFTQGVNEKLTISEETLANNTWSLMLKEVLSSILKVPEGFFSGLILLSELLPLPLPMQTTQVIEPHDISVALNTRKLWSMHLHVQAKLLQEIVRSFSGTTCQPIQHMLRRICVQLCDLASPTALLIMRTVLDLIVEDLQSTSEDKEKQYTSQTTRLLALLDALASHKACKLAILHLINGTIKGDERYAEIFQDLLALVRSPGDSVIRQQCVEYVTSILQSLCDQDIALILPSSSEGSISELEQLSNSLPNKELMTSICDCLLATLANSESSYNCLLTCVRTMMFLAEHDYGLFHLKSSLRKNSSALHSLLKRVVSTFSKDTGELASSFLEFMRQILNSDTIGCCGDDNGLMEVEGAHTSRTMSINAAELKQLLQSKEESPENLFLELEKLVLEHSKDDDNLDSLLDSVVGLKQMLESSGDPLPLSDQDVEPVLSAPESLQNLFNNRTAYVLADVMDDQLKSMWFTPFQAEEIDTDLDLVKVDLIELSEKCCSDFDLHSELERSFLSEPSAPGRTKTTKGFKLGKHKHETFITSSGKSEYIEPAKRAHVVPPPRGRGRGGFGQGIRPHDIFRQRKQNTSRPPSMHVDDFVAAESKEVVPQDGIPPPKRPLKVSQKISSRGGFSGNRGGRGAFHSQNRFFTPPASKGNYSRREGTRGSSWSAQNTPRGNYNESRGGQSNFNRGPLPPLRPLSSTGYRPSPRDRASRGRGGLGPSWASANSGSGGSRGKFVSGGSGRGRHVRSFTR
UniProt P52294: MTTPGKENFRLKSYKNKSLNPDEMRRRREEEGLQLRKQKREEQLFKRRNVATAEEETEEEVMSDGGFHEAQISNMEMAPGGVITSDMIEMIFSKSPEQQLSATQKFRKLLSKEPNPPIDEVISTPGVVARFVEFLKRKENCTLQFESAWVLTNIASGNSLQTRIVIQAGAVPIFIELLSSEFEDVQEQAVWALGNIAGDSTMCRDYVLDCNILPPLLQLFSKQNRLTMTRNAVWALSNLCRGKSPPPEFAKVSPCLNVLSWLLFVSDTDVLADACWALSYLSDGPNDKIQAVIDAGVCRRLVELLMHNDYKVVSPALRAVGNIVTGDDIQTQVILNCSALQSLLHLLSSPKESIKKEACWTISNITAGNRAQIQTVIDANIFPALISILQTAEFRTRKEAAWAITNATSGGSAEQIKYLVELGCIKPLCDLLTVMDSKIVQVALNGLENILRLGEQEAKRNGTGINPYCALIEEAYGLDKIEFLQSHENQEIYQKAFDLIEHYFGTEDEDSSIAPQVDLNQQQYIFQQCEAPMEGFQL
UniProt P15056: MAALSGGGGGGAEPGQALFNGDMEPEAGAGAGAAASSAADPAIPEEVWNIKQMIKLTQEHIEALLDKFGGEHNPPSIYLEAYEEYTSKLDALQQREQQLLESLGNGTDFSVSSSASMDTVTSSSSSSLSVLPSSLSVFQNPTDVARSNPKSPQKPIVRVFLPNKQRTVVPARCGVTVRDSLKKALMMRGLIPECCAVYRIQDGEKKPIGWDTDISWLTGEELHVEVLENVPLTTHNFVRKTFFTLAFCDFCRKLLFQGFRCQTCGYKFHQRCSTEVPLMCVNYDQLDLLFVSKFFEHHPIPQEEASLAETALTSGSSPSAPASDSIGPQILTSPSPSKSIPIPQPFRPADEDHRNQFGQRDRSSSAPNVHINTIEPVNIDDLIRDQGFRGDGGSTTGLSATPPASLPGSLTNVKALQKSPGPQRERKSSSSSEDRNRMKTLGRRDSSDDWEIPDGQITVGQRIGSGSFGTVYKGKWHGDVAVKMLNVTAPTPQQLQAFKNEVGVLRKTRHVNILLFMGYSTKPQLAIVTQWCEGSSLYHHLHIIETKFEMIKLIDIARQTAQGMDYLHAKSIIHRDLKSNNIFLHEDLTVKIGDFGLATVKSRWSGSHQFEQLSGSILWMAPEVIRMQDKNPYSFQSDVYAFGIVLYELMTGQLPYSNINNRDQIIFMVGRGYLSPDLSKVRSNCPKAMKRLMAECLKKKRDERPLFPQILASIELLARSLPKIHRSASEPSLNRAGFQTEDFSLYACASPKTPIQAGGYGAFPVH

Substance: BRAF, endogenous in SW480 cells (from UniProt P15056 1-766) (enzyme)
- binding [1]: binds

Substance: KIAA1429 with serine 1579 replaced by alanine (KIAA1429-SA) (from UniProt Q69YN4 1-1812)
- binding [2]: binds

Substance: Vir-like m6A methyltransferase-associated (KIAA1429) protein, endogenous (from UniProt Q69YN4 1-1812)
- binding [3]: binds
- binding [4]: binds

Substance: importin α5, endogenous (from UniProt P52294 1-538)
- binding [1]: binds
